Test results reported in paper PMC4512152.
No constants are given. Whether binding was seen depends on the method and setting. Binding seen in cells or lysates may run through a third protein. Some binding calls cover weakened binding; strength is not graded here. For part of these data: Tags and fused reporters may be left off the sequences shown.

The chains behind the UniProt entries cited, without tags or fusion partners. Where a name states a change or a piece, a line headed by the entry shows the natural chain unless it says otherwise.
UniProt Q99PV5: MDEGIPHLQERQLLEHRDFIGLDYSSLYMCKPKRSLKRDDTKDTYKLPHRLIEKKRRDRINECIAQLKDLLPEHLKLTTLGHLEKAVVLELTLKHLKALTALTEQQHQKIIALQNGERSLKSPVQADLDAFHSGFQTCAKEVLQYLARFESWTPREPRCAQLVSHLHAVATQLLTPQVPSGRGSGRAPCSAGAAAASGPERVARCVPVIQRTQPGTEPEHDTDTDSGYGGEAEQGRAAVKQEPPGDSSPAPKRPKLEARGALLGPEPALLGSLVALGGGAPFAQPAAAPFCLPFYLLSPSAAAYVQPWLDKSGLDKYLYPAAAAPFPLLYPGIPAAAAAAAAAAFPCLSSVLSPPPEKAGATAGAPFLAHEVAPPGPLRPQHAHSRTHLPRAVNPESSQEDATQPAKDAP

Assays:
flag-tagged E4BP4 = target: T1, flag-tagged E4BP4 (UniProt O08750); experiment: co-IP; COS-7 cells transfected with myc-tagged Dec2 vectors and flag-tagged E4BP4 vector; lysates precipitated with anti-flag antibody, blot with anti-myc antibody
T1 sequence: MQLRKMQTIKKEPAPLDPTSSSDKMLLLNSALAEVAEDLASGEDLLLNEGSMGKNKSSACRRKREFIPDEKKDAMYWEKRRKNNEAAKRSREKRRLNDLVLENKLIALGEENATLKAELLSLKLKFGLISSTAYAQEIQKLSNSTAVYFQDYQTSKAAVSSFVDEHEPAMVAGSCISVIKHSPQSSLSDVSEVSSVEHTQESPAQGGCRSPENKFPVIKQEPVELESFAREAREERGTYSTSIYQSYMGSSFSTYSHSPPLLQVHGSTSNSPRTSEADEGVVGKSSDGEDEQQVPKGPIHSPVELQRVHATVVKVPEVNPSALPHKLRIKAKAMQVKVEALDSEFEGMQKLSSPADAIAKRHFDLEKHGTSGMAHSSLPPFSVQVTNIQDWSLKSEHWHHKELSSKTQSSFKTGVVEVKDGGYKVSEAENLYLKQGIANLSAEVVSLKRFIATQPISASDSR

[1] = target: DEC2 (differentiated embryonic chondrocyte-expressed 2) (UniProt Q99PV5); experiment: co-IP; NIH3T3 cells co-transfected with pcDNA3.1-Dec2 and pcDNA3.1-FLAG-E4bp4; lysate in 20 mM Tris-HCl pH 7.5, 150 mM NaCl, 0.3% Triton X-100; precipitated with anti-DEC2 antibody and Protein A agarose overnight at 4°C; blot with anti-FLAG
[2] = target: GST-DEC2 fusion protein (full-length Dec2 fused with GST) (UniProt Q99PV5); experiment: pull-down; purified GST-DEC2 on glutathione-coupled agarose beads; [35S]methionine-labeled E4BP4 synthesized in vitro; detected by radioactivity; only the target purified

myc-tagged DEC2 bHLH domain (from UniProt Q99PV5 44-99) (domain or fragment)
binding (flag-tagged E4BP4): binds

B1: Flag-tagged E4BP4 (E-promoter-binding protein 4) (protein, UniProt O08750 1-462)
chain: T1 sequence
binding [1]: binds

B2: Radioisotope labeled S^35-E4BP4 (protein, UniProt O08750 1-462)
chain: T1 sequence
modifications: [35S] methionine-labeled
binding [2]: binds
